We go through three substances from paper doi:10.1101/2023.11.29.569073.

These are yes or no findings as the source states them, for the method shown. In cells and extracts the contact can be indirect. Binding calls can cover weak binding; strength is not graded here. Where a sequence is shown, tags or fusion partners need not be part of it.

The target of this experiment is T1, CPK28-nLuc (Arabidopsis thaliana) (UniProt Q9FKW4).
T1 sequence: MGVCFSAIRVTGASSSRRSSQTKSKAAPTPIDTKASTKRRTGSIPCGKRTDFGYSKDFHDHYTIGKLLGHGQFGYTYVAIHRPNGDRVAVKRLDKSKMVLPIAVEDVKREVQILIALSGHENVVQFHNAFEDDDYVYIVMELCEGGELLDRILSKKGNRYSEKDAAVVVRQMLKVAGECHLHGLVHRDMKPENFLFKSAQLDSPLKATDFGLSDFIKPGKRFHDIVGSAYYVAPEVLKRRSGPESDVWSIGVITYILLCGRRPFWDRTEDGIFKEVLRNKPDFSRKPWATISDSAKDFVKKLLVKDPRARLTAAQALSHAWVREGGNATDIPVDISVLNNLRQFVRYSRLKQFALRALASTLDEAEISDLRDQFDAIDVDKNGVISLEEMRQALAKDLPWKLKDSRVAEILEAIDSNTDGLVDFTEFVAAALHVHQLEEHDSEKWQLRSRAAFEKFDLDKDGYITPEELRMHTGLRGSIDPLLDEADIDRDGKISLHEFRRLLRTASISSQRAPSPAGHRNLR
The experiment can be described thus: split reporter.
Take “cLuc-MRK1 (Arabidopsis thaliana) (enzyme)”: the binding entry is given as “binds”.

As to “cLuc-RAF26 (Arabidopsis thaliana) (enzyme)”, the binding result is “binds”.

With “cLuc-RAF39 (Arabidopsis thaliana) (enzyme)”, the binding entry is given as “binds”.
